In the supplement of paper PMC10338343:
± gives the standard deviation. The list shows a part of the results, in another mix than the full data. Many of these values have a large error.

system: MIWI (PIWIL1) piRISC loaded with piRNA #2 (30 nt); experiment: pre-steady-state target cleavage rate (min^-1); MIWI and MILI are mouse PIWI proteins and EfPiwi is from a freshwater sponge; tags in brackets are library labels; higher = faster piRNA-guided slicing of the target; conditions: guide: piRNA #2 5'p-UUAGGUAACCCAGUAGAUCCAGAGGAAUUC; auxiliary factor: 500 nM mouse GTSF1
Outline: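 In this Cleave-'n-Seq assay, uncleaved targets were sequenced and normalised to depth and to weakly complementary targets. They came from a transcribed, DNA-blocked target RNA library […] mixed with 1 nM active affinity-purified piRISC carrying one synthetic guide, with or without 500 nM GTSF1 partner protein, in HEPES–potassium acetate buffer at 33 °C for 0–8 or 0–960 min. After three trials were pooled and k3 was capped at 0.0001 min^-1, the pre-steady-state cleavage rate was obtained from a burst-and-steady-state fit.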
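Also: 1 nM active piRISC with 0.1 nM target library at 33 °C single turnover.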

Row | Sequence | pre-steady-state target cleavage rate
1 | CUUAAGGAGACCAUCUACUGGGUAAGCUAA | 0.000584 ± 0.013
2 | CUUAAGGAGACCAUCUACUGGGUUGACCUAA | 0.00166 ± 0.0072
3 | CUUAAGGAGACCAUGUACUGGGUUACGUAA | 0.000322 ± 0.0089
4 | CUUAAGGAGACCUAGAUGACGGUUACCUAAA | 0.000125 ± 0.03
5 | CUUAACCUCUGGAUCUACUGGGUUACUAA | 0.116 ± 0.018
6 | CAAUUCCUCUCGAUCUACUGGGUUACCUAA | 0.822 ± 0.063
7 | CUUAAGCUCUGGAUCUACUCGCUUACCUAA | 0.00339 ± 0.0048
8 | CUUAAGGACUGGAUCUACUGCGAUACCUAA | 0.0164 ± 0.02
9 | CUUAAGGACUGGAUCAACUGGGAUACCUAA | 0.0079 ± 0.011
10 | CUUAAGGAGAGGUUCUACUGGGUUAGCUAA | 0.0013 ± 0.0059
11 | CUUAAGGAGACCUAGAUGACCCAUACCUAG [g2:g7:cont:t1G] | 0.000183 ± 0.032
12 | CUUAAGGAGACCUAGAUCUGGAGUUACCUAA | 0.00068 ± 0.015
13 | CUUAAGGAGACGAUCUACAGGGUUAGCUAA | 0.00122 ± 0.006
14 | CUUAAGGAGACCUUCUACUGCGUUACCAAA | 0.000886 ± 0.0072
15 | CUUAAGGAGACCUUCUACUGGGAUACGUAA | 0.000559 ± 0.012
16 | CUUAAGGACUGGAACUACUGGGAUACCUAA | 0.0152 ± 0.016
17 | CUUAAGGAGAGGAUCUUCUGGGUUACCUUA | 0.000836 ± 0.013
18 | CUUAAGGACUGGAUCAACUGGGUUUCCUAA | 0.0071 ± 0.0085
19 | CUUAAGGACUGGAUGUUCUGGGUUACCUAA | 0.00493 ± 0.014
20 | CUUAUCCUCUGGAUCUACUGUGUUACCUAA | 0.722 ± 0.074
21 | CAAUUCCUCUGGAACUACUCGGUUACCUAA | 0.157 ± 0.022
22 | CUUAAGGAGACCUUCUCUGGGUUACCUAA | 0.00177 ± 0.0076
23 | CUUAAGGAGAGCAUCUACUGGGUUACCUUA | 0.0033 ± 0.0034
24 | CUUAAGGAGUGGAUCAUACUGGGUUACCUAA | 0.00035 ± 0.02

Four records picked at random from those above:
Row | Sequence | pre-steady-state target cleavage rate
22 | CUUAAGGAGACCUUCUCUGGGUUACCUAA | 0.00177 ± 0.0076
16 | CUUAAGGACUGGAACUACUGGGAUACCUAA | 0.0152 ± 0.016
10 | CUUAAGGAGAGGUUCUACUGGGUUAGCUAA | 0.0013 ± 0.0059
24 | CUUAAGGAGUGGAUCAUACUGGGUUACCUAA | 0.00035 ± 0.02

Rewritten tab-delimited: part of the list above
Row	Sequence	pre-steady-state target cleavage rate
18	CUUAAGGACUGGAUCAACUGGGUUUCCUAA	0.0071 ± 0.0085
24	CUUAAGGAGUGGAUCAUACUGGGUUACCUAA	0.00035 ± 0.02

Additional results.

Row | Sequence | pre-steady-state target cleavage rate
25 | CUUAAGGAGACCAUGAUCUGGGUUACCUAA | 0.000822 ± 0.0068
26 | CUUAAGGAGACGAUCUACUGGGUUCACCUAA | 0.00176 ± 0.0063
27 | CUUAAGGUCUGGAUCUACUGGCAAACCUAA | 0.00133 ± 0.011
28 | CUUAAGGAGACGAUCUACAGGCUUACCUAA | 0.000901 ± 0.0083
29 | CUUAAGGUCUGCAUCUAGUGGGUUACCUAA | 0.0327 ± 0.0059
30 | GAAUUCCUCUGCUUCUACUGGGUUACCUAA | 0.48 ± 0.04
31 | CUUAAGGAGACCAUCUACUGCGUUAGCUAA | 0.000751 ± 0.015
32 | CUUAAGGAGACCUAGAUCUGGGUUGACCUAA | 0.000547 ± 0.011
33 | CUUAAGGAGACCUUCUACUGGUUACCUAA | 0.0018 ± 0.0058
34 | CUUAAGGAGACCUAGAUGGGGGUUACCUAA | 0.0013 ± 0.012
35 | CUUAAGGAGACCAUCUACUGGGCUUACCUAA | 0.000762 ± 0.0092
36 | CUUAAGGAGUGGAUCUACAGGGUAACCUAA | 0.00234 ± 0.005
37 | CUUAACCUCUGGAUCUAGACGGUUACCUAA | 0.000904 ± 0.0083
38 | CUUAAGGAGACCUUCUACAGGGUUACGUAA | 0.00202 ± 0.0063
39 | CUUAAGGAGACGAUCUACUGGUGUUACCUAA | 0.000309 ± 0.024
40 | CUAUUCCUCCGGAUCUACUGGGUUACCUAA | 0.697 ± 0.12
41 | CUUAAGGAGACCUAGAUGUGGGUUACCUAC [g2:g12:cont:t1C] | 0.000747 ± 0.01
42 | CUUAAGGAGAGGUUCUACUGGCUUACCUAA | 0.00217 ± 0.0052
43 | CUUAAGGAGAGGAUCUAGUGGGUUACCUAA | 0.000885 ± 0.011
44 | CUUAAGCUCUGGAUCUUGUGGGUUACCUAA | 0.00325 ± 0.0043
45 | CUAUUCCUCUGGAUCUACUGGUGUUACCUAA | 0.00505 ± 0.0032
46 | CUUAAGGAGACCUAGAUCAGGGUAACCUAA | 0.000198 ± 0.021
47 | CUUAAGGAGACCAUAUACUGGGUUACCUAA | 0.00152 ± 0.0057
48 | CUUAAGGAGACGAUGAUCUGGGUUACCUAA | 0.000165 ± 0.04

Row | Sequence | pre-steady-state target cleavage rate
49 | CUUAAGCUCUGGAUCUACUGGGUUACCCAA | 0.00358 ± 0.005
50 | CUUAAGGAGAGGAUCUACUCGGUUACCUAA | 0.00249 ± 0.0065
51 | CUUAAGGAGUGGAUCUACUGGCUUUCCUAA | 0.000262 ± 0.021
52 | CUUAACCACUGGAUCUACUGGGUUACGUAA | 0.402 ± 0.031
53 | CUUAAGGAGACGAUCUACUGGGGUACCUAA | 0.0004 ± 0.018
54 | CUUAAGGAGAGCAUCUACUGGGAUACCUAA | 0.000651 ± 0.0089
55 | CUUAAGGAGAGGAUCUACUGGGUUUCCUUA | 0.00157 ± 0.006
56 | CUUAAGGAGACCAUCUACUGGGUUACUUAA | 0.00134 ± 0.004
57 | CUUAAGGAGACCAUCUACUGGGUUACCCAA | 0.00145 ± 0.0065
58 | CUUAAGGAGACCUGCUACUGGGUUACCUAA | 0.00305 ± 0.004
59 | CUUAAGGAGACCUACUACUGGGUUACCUA | 0.00141 ± 0.0042
60 | CUUAAGGAGACCUACCACUGGGUUACCUAA | 0.000878 ± 0.0081
61 | CUUAAGGAGACCUAGUACUGGUGUUACCUAA | 0.000372 ± 0.018
62 | CUUAAGGAGUGGAUCUACUGCGGUUACCUAA | 0.000359 ± 0.012
63 | CUUAAGCUCUGCAUCUACUGGGUUAGCUAA | 0.182 ± 0.027
64 | CUUUUCCUCUGGAUCUACUGGGUUAGGAUA [g6:g27:cont:t1A] | 0.00298 ± 0.0048
65 | CUUAAGGUCUGGAUCUACCUGGGUUACCUAA | 0.000628 ± 0.011
66 | CUUAAGGAGACCUAGUACUGCGUUACCUAA | 0.0013 ± 0.0071
67 | CUUAAGGAGUCGAUCUACUGGGUUACGUAA | 0.00611 ± 0.0073
68 | CAAUUCCUCUGGAUCCUACUGGGUUACCUAA | 0.29 ± 0.055
69 | CUUAAGGAGACCUACUACUGGGGUUACCUAA | 0.000805 ± 0.0098
70 | CUUAAGGAGACCUACUACUGGGUUCCUAA | 0.00023 ± 0.017
71 | CUUAAGGAGACGAUCUACUGGGUCUACCUAA | 0.00139 ± 0.0066
